# Experimental data reported in patent publication US20180303952A1.
# By UniProt entry, the sequences of proteins in these tests, tags left out. Where a name states a change or a piece, a line headed by the entry shows the natural chain unless it says otherwise. Residues count along the entry.
# UniProt P35613, residues 141-321: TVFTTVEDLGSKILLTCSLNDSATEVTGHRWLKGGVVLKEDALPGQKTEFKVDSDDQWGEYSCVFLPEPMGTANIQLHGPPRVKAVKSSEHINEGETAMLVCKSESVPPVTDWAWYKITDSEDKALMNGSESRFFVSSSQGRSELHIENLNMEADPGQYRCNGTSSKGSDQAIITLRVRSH
# These are yes or no findings as the source states them, for the method shown. Some binding calls cover weakened binding; strength is not graded here.
# B1: humanized anti-human CD147 monoclonal antibody hu 3A11 Lc1/Hc1 (antibody, V domains shown)
# VH: EVQLVESGGGLVQPGGSLRLSCAASGFTFSNYWMDWVRQAPGKGLEWVGEIRLKSYNYATHYAASVKGRFTISRDDSKNSVYLQMNSLKTEDTAVYYCTAAGTDYWGQGTLVTVSS
# VL: DIQMTQSPSSLSASVGDRVTITCRASQSVRTDVGWYQQKPGKAPKLLIYYSSNRYTGVPSRFSGSGSGTDFTLTISSLQPEDFATYYCQQDYSSPYTFGQGTKLEIK
# Molecular target: recombinant human CD147-Fc chimeric protein (glycosylated) (human) (UniProt P35613)
# Assay: ELISA on adsorbed CD147-Fc
binder,measurement,value
B1,binding,binds
